Experimental data: the supplement of paper PMC12009310
Where a name gives a salt, the structure may show the parent alone. ± gives the standard deviation of the averaged measurements. Some of the results follow. Baselines shift from plate to plate; read single values as rough.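 The cells are a mouse kidney inner medullary collecting duct line, silenced either for the ciliary gene Rpgrip1l or with a non-targeting control siRNA.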

Tests used:
[1] = system: mIMCD3; experiment: robust z score of cell number vs plate controls; higher = more cells (less cytotoxic); conditions: 10 µM, 48 h
[2] = system: mIMCD3; experiment: robust z score of cilia incidence (% cells with single cilium) vs plate controls; higher = more ciliated cells; conditions: 10 µM; 48 h; siRNA: siScr
[3] = system: mIMCD3; experiment: robust z score of cilia incidence (% cells with single cilium) vs plate controls; higher = more ciliated cells (rescue of cilia loss); conditions: 10 µM; 48 h; siRNA: siRpgrip1l

| Compound | robust z score of cell number ([1]; siRNA: siRpgrip1l) | robust z score of cell number ([1]; siRNA: siScr) | robust z score of cilia incidence [2] | robust z score of cilia incidence [3] |
| --- | --- | --- | --- | --- |
| BrC1C(Br)C(Br)C(Br)C(Br)C1Br (stereo unspecified) [1,2,3,4,5,6-Hexabromocyclohexane] | -8.52 ± 4.4 | -3.58 ± 0.59 | 3.98 ± 2.9 | -10.5 ± 7.6 |
| C=C(C)CN1CC[C@@]23c4c5ccc(O)c4O[C@H]2c2[nH]c4ccccc4c2C[C@]3(O)C1C5 [SDM25N hydrochloride] | -300 ± 210 | -39.8 ± 9.5 | -54.5 ± 10 | -33.1 ± 12 |
| CC[C@@]1(O)C(=O)OCc2c1cc1n(c2=O)Cc2cc3ccccc3nc2-1 [Camptothecin] | -60 ± 51 | -51.3 ± 1.6 | -49.9 ± 15 | -29.3 ± 0.61 |
| O=C1C2CCN(CC2)C1(CO)CO | -11.2 ± 9.1 | -13 ± 5.3 | -9.99 ± 8 | -31.7 ± 18 |
| CC(=O)[C@H]1CC[C@H]2[C@@H]3CC[C@H]4C[C@](C)(O)CC[C@]4(C)[C@H]3CC[C@]12C [Ganaxolone] | -12.3 ± 7.6 | -44.8 ± 37 | -4.09 ± 2.2 | -20.1 ± 1.4 |
| NCC(CS(=O)(=O)O)c1ccc(Cl)cc1 (stereo unspecified) [Saclofen] | 7.5 ± 12 | -2.6 ± 3.8 | 0.107 ± 2.8 | -6.96 ± 3.1 |
| CCCN(CCC)C1Cc2cc(OC)c(OC)cc2C1 | -83.7 ± 61 | -5.09 ± 0.47 | -5.09 ± 6.5 | -14.2 ± 3 |
| C[C@@H](N)Cc1cnc[nH]1 [(R)-(-)- α-Methylhistamine dihydrobromide] | -2.96 ± 9.8 | -4.75 ± 4.5 | 1.5 ± 1.5 | -15.6 ± 2.5 |
| N[C@@H](Cn1oc(=O)[nH]c1=O)C(=O)O [L-Quisqualic acid] | 3.9 ± 4.3 | -7.27 ± 12 | 0.0286 ± 3.1 | -7.66 ± 8 |
| CC(=O)N(C)c1cccc(-c2ccnc3c(C(=O)c4cccs4)cnn23)c1 [Indiplon] | -49.9 ± 67 | -1.17 ± 3.5 | 0.68 ± 0.14 | -11.2 ± 4.8 |
| NC(=S)N/N=C/c1coc2ccccc2c1=O.[Cl][Cu][Cl] | -5.52 ± 4.4 | -5.048 ± 0.024 | -7.82 ± 7.6 | -4.24 ± 1.6 |
| O=C1NCN(c2ccccc2)C12CCN(CC1COc3ccccc3O1)CC2 (stereo unspecified) [Spiroxatrine] | -5.08 ± 7.8 | -3.37 ± 0.32 | 1.16 ± 1.8 | -11.7 ± 0.65 |
| CCC1(C2=NCCN2)Cc2ccccc2O1 (stereo unspecified) [Efaroxan hydrochloride] | -1.15 ± 3.8 | -2.8 ± 0.41 | 2.37 ± 1.3 | -5.48 ± 0.29 |
| Cc1nc(N)sc1CCN [Amthamine dihydrobromide] | -5.18 ± 8.2 | 8.48 ± 6.9 | 0.464 ± 2.4 | -6.26 ± 7.3 |
| O=C(N[C@H]1CN2CCC1CC2)c1ccc(Cl)cc1 | -4.68 ± 3.6 | 0.818 ± 0.57 | 0.133 ± 0.66 | -10.2 ± 6.2 |
| Oc1cc2c(cc1O)[C@H]1c3ccccc3CN[C@@H]1CC2 (racemic) [Dihydrexidine hydrochloride] | -17.2 ± 3.2 | -13.2 ± 7.6 | -15.4 ± 4.5 | -20.3 ± 4.3 |
| Cc1onc(O)c1CC(N)C(=O)O (racemic) [(RS)-AMPA hydrobromide] | -7.38 ± 4.4 | -1.87 ± 0.88 | 0.0329 ± 0.77 | -14.7 ± 2.9 |
| CCCN(C/C=C/I)C1CCc2ccc(O)cc2C1 (stereo unspecified) [7-Hydroxy-PIPAT maleate] | -1.08 ± 3.7 | -0.143 ± 0.91 | 2.59 ± 1.3 | -7.56 ± 3.4 |
| CC(N)Cc1c[nH]c2ccc(OCc3cccs3)cc12 (stereo unspecified) [BW 723C86 hydrochloride] | -16.8 ± 9 | 1.28 ± 2.2 | -1.87 ± 1.7 | -23.5 ± 4 |
| O=C1CSC(c2ccccc2Cl)c2cc(Cl)ccc2N1 (stereo unspecified) | -13.8 ± 8.2 | -1.98 ± 3.7 | 0.0374 ± 0.67 | -15.4 ± 0.56 |
| Cc1cccc(C(C)c2c[nH]cn2)c1C (stereo unspecified) [Medetomidine hydrochloride] | -1.9 ± 1.4 | -1.92 ± 5.6 | -5.053 ± 0.014 | -18.4 ± 16 |
| CN1CCC(c2c[nH]c3ccc(O)cc23)CC1 | -21.9 ± 15 | -5.73 ± 2.4 | 0.561 ± 1.2 | -11.8 ± 4.1 |
| CN(C)c1ccc(/C=C2\CCCN=C2c2cccnc2)cc1 [DMAB-anabaseine dihydrochloride] | 0.276 ± 3.5 | -4.56 ± 9 | -4.18 ± 1.7 | -19 ± 13 |
| Cc1ccc2c(c1)C1(CCN(CCc3nc(-c4ccccc4)oc3C)CC1)OC(=O)N2 | -33 ± 11 | -144 ± 110 | -57.2 ± 13 | -54.7 ± 6.7 |
| N#Cc1ccc(N2CCN(C(=O)COc3ccc4[nH]cc(CCN)c4c3)CC2)cc1 [Donitriptan hydrochloride] | -49.3 ± 66 | -3.3 ± 6.8 | -1.51 ± 2.5 | -8.56 ± 3.5 |
| CN1CCc2cc3c(cc2C1C1OC(=O)c2c1ccc1c2OCO1)OCO3 (single isomer, unassigned; (+)) [(+)-Bicuculline] | -1.51 ± 3.5 | -3.83 ± 4.8 | 0.577 ± 0.35 | -9.65 ± 1.1 |
| COC1(C[S@+]([O-])c2ccccc2)CCN(CCc2c[nH]c3ccc(F)cc23)CC1 | -98.9 ± 95 | -2.86 ± 1.7 | -4.31 ± 3.1 | -17.3 ± 4.5 |
| CS(=O)(=O)Nc1ccc(Cc2noc(-c3ccc4[nH]cc(CCN)c4c3)n2)cc1 | -1.72 ± 1 | -2.46 ± 1 | 1.39 ± 2.3 | -5.64 ± 3.8 |
| CNCCc1cnc[nH]1 [N α-Methylhistamine dihydrochloride] | 0.343 ± 2.7 | 0.33 ± 0.95 | -0.884 ± 0.98 | -7.84 ± 4.9 |

Compounds from the list above containing a thiophene ring, fused or not:

| Compound | robust z score of cell number ([1]; siRNA: siRpgrip1l) | robust z score of cell number ([1]; siRNA: siScr) | robust z score of cilia incidence [2] | robust z score of cilia incidence [3] |
| --- | --- | --- | --- | --- |
| CC(=O)N(C)c1cccc(-c2ccnc3c(C(=O)c4cccs4)cnn23)c1 [Indiplon] | -49.9 ± 67 | -1.17 ± 3.5 | 0.68 ± 0.14 | -11.2 ± 4.8 |
| CC(N)Cc1c[nH]c2ccc(OCc3cccs3)cc12 (stereo unspecified) [BW 723C86 hydrochloride] | -16.8 ± 9 | 1.28 ± 2.2 | -1.87 ± 1.7 | -23.5 ± 4 |
